Laboratory results: PubChem BioAssay AID504784 (Drosophila RNAi Screening Center, 2011)
Assay: 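Genome-wide knock-down for genes giving too much or too little stored lipid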 (primary screen). Cells: Drosophila Kc167 embryonic cells. Knock-down reagent: long dsRNA against Drosophila genes, about 250 ng dsRNA per well. Duration: 4 days. Treatment: cells fed 400 µM oleic acid bound to BSA. Measurement: 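Cells imaged and segmented; ratio of lipid droplet area to nuclear area, log-transformed, then normalised as a B-score over the screen; higher means more stored lipid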. Scale: droplet/nuclear area B-score: higher = more stored lipid (overstorage).
The deposit covers about 17,000 reagents; below is a random part of those that have a named target and a result. 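Each column is one replicate's B-score; the combined score over replicates was not deposited, so single values may mislead.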

| gene knocked down | dsRNA | droplet/nuclear area B-score, replicate 1 | droplet/nuclear area B-score, replicate 2 | droplet/nuclear area B-score, replicate 3 |
| --- | --- | --- | --- | --- |
| CG6424 | DRSC05936 | 0.155 | -0.5 | – |
| CG15130 | DRSC02430 | -1.42 | -0.877 | – |
| GluProRS (Glutamyl-prolyl-tRNA synthetase) | DRSC14095 | 0.145 | 2.16 | – |
| CG14069 | DRSC02372 | -0.767 | 0.111 | – |
| SerT (Serotonin transporter) | DRSC04655 | 1.14 | 0.161 | – |
| pippin | DRSC04489 | 1.04 | -0.381 | – |
| CG31142 | DRSC13647 | -0.881 | -0.0154 | – |
| CG14331 | DRSC14810 | -0.396 | -0.0944 | – |
| Cdk5 (Cyclin-dependent kinase 5) | DRSC07359 | 0.968 | -1.05 | – |
| Diedel | DRSC14317 | 0.211 | -0.56 | – |
| CG14562 | DRSC11723 | 0.391 | -0.122 | – |
| Bap111 (Brahma associated protein 111kD) | DRSC18419 | -3.89 | -1.94 | -0.071 |
| Smox (Smad on X) | DRSC18716 | 0.501 | 3.33 | – |
| mRpL1 (mitochondrial ribosomal protein L1) | DRSC16251 | 2.03 | 2.46 | – |
| CG1394 | DRSC19539 | 1.16 | 1.04 | 2.46 |
| Ada2b (transcriptional Adaptor 2b) | DRSC16531 | -0.539 | 0.747 | – |
| CG9395 | DRSC03218 | -3.54 | 0.256 | – |
| CG5250 | DRSC15752 | -0.109 | -0.64 | – |
| CG12096 | DRSC21692 | 0.00121 | 0.0138 | – |
| Osi20 (Osiris 20) | DRSC12568 | -0.296 | -0.686 | – |
| CG1889 | DRSC18195 | 0.0363 | 0.364 | 0.179 |
| CG11449 | DRSC11662 | -0.195 | 0.67 | – |
| Toll-7 | DRSC07563 | -1.12 | -1.03 | 0.823 |
| Gnmt (Glycine N-methyltransferase) | DRSC15987 | 3.18 | 2.94 | – |
| Nadk1b (NAD kinase 1b) | DRSC06964 | -0.79 | 0.0081 | – |
| Nadk1b (NAD kinase 1b) | DRSC06965 | 0.65 | 0.149 | – |
| TrpA1 (Transient receptor potential cation channel A1) | DRSC10544 | 0.619 | 1.96 | – |
| iPLA2-VIA (calcium-independent phospholipase A2 VIA) | DRSC10699 | -1.09 | -0.47 | – |
| borr (borealin-related) | DRSC02749 | -0.502 | -1.05 | – |

Continued, starting with the last 11 of the part before.
| gene knocked down | dsRNA | droplet/nuclear area B-score, replicate 1 | droplet/nuclear area B-score, replicate 2 | droplet/nuclear area B-score, replicate 3 |
| --- | --- | --- | --- | --- |
| CG12096 | DRSC21692 | 0.00121 | 0.0138 | – |
| Osi20 (Osiris 20) | DRSC12568 | -0.296 | -0.686 | – |
| CG1889 | DRSC18195 | 0.0363 | 0.364 | 0.179 |
| CG11449 | DRSC11662 | -0.195 | 0.67 | – |
| Toll-7 | DRSC07563 | -1.12 | -1.03 | 0.823 |
| Gnmt (Glycine N-methyltransferase) | DRSC15987 | 3.18 | 2.94 | – |
| Nadk1b (NAD kinase 1b) | DRSC06964 | -0.79 | 0.0081 | – |
| Nadk1b (NAD kinase 1b) | DRSC06965 | 0.65 | 0.149 | – |
| TrpA1 (Transient receptor potential cation channel A1) | DRSC10544 | 0.619 | 1.96 | – |
| iPLA2-VIA (calcium-independent phospholipase A2 VIA) | DRSC10699 | -1.09 | -0.47 | – |
| borr (borealin-related) | DRSC02749 | -0.502 | -1.05 | – |
| Nplp4 (Neuropeptide-like precursor 4) | DRSC00391 | -0.00417 | -1.09 | – |
| Ddx1 (Dead-box-1) | DRSC11862 | 0.167 | -0.102 | -0.537 |
| ppk16 (pickpocket 16) | DRSC02736 | -1.04 | 0.638 | – |
| Cpr12A (Cuticular protein 12A) | DRSC19722 | 2.12 | -0.0184 | 0.816 |
| sgl (sugarless) | DRSC21431 | -0.00449 | 0.00139 | – |
| rec (recombination-defective) | DRSC14998 | -1.17 | -0.328 | – |
| rec (recombination-defective) | DRSC15656 | -0.115 | -0.683 | – |
| srl (spargel) | DRSC12340 | -0.435 | -0.482 | – |
| CG18754 | DRSC15387 | -1.39 | 0.74 | – |
| CG17726 | DRSC15255 | 0.439 | 0.446 | – |
| CG14644 | DRSC12230 | 0.605 | -0.713 | – |
| CG11112 | DRSC06038 | 1.97 | 1.15 | – |
| GCS2beta (Glucosidase 2 beta subunit) | DRSC02960 | -0.674 | 1 | – |
| CG15543 | DRSC15081 | 0.38 | -1.85 | – |
| fl(2)d (female lethal d) | DRSC07620 | 0.542 | 0.353 | – |
| CG32201 | DRSC22452 | 1.02 | -0.51 | – |
| RpL15 (Ribosomal protein L15) | DRSC20963 | -0.0123 | 1.95 | – |
| CG13192 | DRSC06317 | 0.686 | -1.25 | – |
| whd (withered) | DRSC07351 | -2.36 | -0.81 | – |
| BomBc1 (Bomanin Bicipital 1) | DRSC06501 | 0.311 | -0.0242 | – |
| CG14830 | DRSC08876 | -0.165 | 0.906 | – |
| CG14830 | DRSC10200 | 0.814 | 0.675 | – |
| CG6421 | DRSC07420 | 0.0423 | -1.21 | – |
| Cep135 (Centrosomal protein 135kDa) | DRSC09345 | -0.13 | -0.604 | – |
| Cep135 (Centrosomal protein 135kDa) | DRSC10244 | 2.04 | -0.0735 | -0.519 |
| CROT (Carnitine O-octanoyltransferase) | DRSC14518 | -4.77 | -0.688 | – |
| CROT (Carnitine O-octanoyltransferase) | DRSC14519 | -0.256 | 0.193 | – |
| Gr59d (Gustatory receptor 59d) | DRSC22553 | 0.376 | 1.18 | – |
| CG4956 | DRSC15683 | -1.13 | -0.622 | – |
| rk (rickets) | DRSC03602 | 0.589 | 0.331 | – |
| CG14151 | DRSC10153 | 0.0251 | -0.461 | – |
| CG33330 (retired record) | DRSC13053 | 0.186 | – | – |
| CG33330 (retired record) | DRSC15495 | -0.136 | 0.808 | – |
| RpL40 (Ribosomal protein L40) | DRSC00782 | 7.81 | 8.7 | – |
| Rpn6 (Regulatory particle non-ATPase 6) | DRSC07541 | 0.241 | 0.722 | – |
| CG44837 | DRSC10133 | 0.837 | 0.78 | – |
| CG44837 | DRSC10558 | -0.556 | 1.44 | – |
| Cyt-c-p (Cytochrome c proximal) | DRSC03310 | 7.73 | 2.24 | – |
| CG17050 (retired record) | DRSC06651 | -0.083 | -0.575 | – |
| CG33337 | DRSC13632 | -0.609 | -0.142 | 0.248 |
| CG7251 | DRSC03039 | 2.75 | -1.77 | – |
| CG7368 | DRSC10826 | -0.963 | -1.34 | -0.015 |
| CG7368 | DRSC22821 | -0.542 | -2.86 | – |
| CG8492 | DRSC10984 | 0.517 | 2.69 | -1.01 |
| CG8492 | DRSC21804 | -2.69 | -1.48 | – |
| BOD1 (Biorientation Defective 1) | DRSC15824 | -0.134 | -0.344 | – |
| dpr10 (defective proboscis extension response 10) | DRSC09015 | 1.27 | 1.75 | – |
| dpr10 (defective proboscis extension response 10) | DRSC10159 | 0.0106 | 1.22 | – |
| dpr10 (defective proboscis extension response 10) | DRSC10160 | 0.244 | -0.625 | – |
| nompA (no mechanoreceptor potential A) | DRSC06329 | -1.55 | 0.121 | – |
| CG6083 | DRSC10580 | 1.91 | -0.188 | – |
| mts (microtubule star) | DRSC03574 | -0.248 | 0.347 | – |
| spri (sprint) | DRSC17846 | -0.0467 | -0.237 | 1.22 |
| spri (sprint) | DRSC17984 | 0.645 | 0.013 | 0.35 |
| spri (sprint) | DRSC17985 | 1.09 | -0.37 | 0.367 |
| spri (sprint) | DRSC17986 | -0.084 | -0.013 | -0.406 |
| spri (sprint) | DRSC17988 | -1.13 | -2.49 | -0.833 |
| spri (sprint) | DRSC17989 | -0.172 | -0.345 | 0.552 |
| spri (sprint) | DRSC22927 | 0.263 | 0.0804 | – |
